Counter-ions that a name gives are not always drawn.
How the values were obtained:
[1] = biological target: T1, Leishmania mexicana inositol phosphorylceramide synthase (LmxIPCS) (Leishmania mexicana, UniProt E9B725)
T1 construct: gene LMXM_34_4990

Sequences of proteins named here, by UniProt entry; tags and fusion partners are left off. A change or cut given only in a name is not applied to a line headed by its entry.
UniProt E9AFX2: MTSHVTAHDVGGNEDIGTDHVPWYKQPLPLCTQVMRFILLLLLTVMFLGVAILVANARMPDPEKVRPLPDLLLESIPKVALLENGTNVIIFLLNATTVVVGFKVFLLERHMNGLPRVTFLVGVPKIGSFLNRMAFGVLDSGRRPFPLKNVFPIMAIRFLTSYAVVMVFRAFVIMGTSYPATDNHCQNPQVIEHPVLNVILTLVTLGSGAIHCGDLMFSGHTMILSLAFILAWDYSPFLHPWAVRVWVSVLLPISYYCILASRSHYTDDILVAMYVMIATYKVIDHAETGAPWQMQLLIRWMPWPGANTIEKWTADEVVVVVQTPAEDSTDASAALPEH

[2] = biological target: T2, Leishmania major inositol phosphorylceramide synthase (LmjIPCS) (Leishmania major, UniProt E9AFX2)
T2 construct: gene IPCS

CN1CCC[C@@H]1CCO[C@](C)(c1ccccc1)c1ccc(Cl)cc1 [clemastine fumarate]
dose-response of IPCS activity in purified proteoliposomes, C6-NBD-ceramide turn [1]: Dose–response assays revealed that LmxIPCS was more sensitive to clemastine fumarate than LmjIPCS (Figure 1C).
dose-response of IPCS activity in purified proteoliposomes, C6-NBD-ceramide turn [2]: with efficacy in the high micromolar range for both orthologues

Reference: PMC11320567, “Evaluation of the Leishmania Inositol Phosphorylceramide Synthase as a Drug Target Using a Chemical and Genetic Approach” (ACS Infectious Diseases, 2024)
